Measured values reported in US20240343779A1, “PHARMACOLOGICAL AND/OR GENETIC ACTIVATOR FOR USE IN PRESERVING AND REGENERATING MUSCLE STRUCTURE AND FUNCTION BY BLOCKING SENESCENCE” (ASSOCIATION FRANCAISE CONTRE LES MYOPATHIES, priority 2021, published 2024).
At least one structure is not confirmed: it was looked up by name or label, or the drawing left a doubt.

Key:
Type in all cases: cell-based, rat
Conditions in all cases: 20 μM, 48 h, vs DMSO
[1] = tested on: Cdkn1a (p21) and Cdkn2a (p16) expression in R-DMDdel52 limb myoblasts; assay: qPCR of senescence markers in limb-derived myoblasts treated with forskolin
[2] = tested on: R-DMDdel52 limb myoblasts; assay: Myogenic differentiation (MF20 staining, fusion index) of limb myoblasts treated with forskolin
[3] = tested on: R-DMDdel52 myoblasts isolated from the limb muscles; assay: EdU proliferation of limb-muscle myoblasts treated with forskolin

Structure (SMILES): C=C[C@@]1(C)CC(=O)[C@]2(O)[C@@]3(C)[C@@H](O)CCC(C)(C)[C@@H]3[C@H](O)[C@H](OC(C)=O)[C@@]2(C)O1 [forskolin]
- Expression of Cdkn1a (p21) [1]: eliminated the abnormal expression
- Expression of Cdkn2a (p16) [1]: eliminated the abnormal expression
- Differentiation potential compared to control R-DMDdel52 cells [2]: improved differentiation potential
- Fusion index [2]: higher fusion index
- Myotube size [2]: significantly larger myotubes
- Proliferation (Pax7:MyoD+/EdU+) relative to R-DMDdel52 control cells [3]: restored proliferation
